Experimental data from article PMC7364817.
Results are given in words; binding and its absence hold for the method and conditions named. Binding seen in cells or lysates may run through a third protein. Here binding means that the protein was enriched with, or labelled near, the bait; the list need not be complete. Where a sequence is shown, tags or fusion partners need not be part of it.

B1: arginyl-tRNA synthetase (protein, UniProt P54136 1-660)
chain: MDVLVSECSARLLQQEEEIKSLTAEIDRLKNCGCLGASPNLEQLQEENLKLKYRLNILRKSLQAERNKPTKNMINIISRLQEVFGHAIKAAYPDLENPPLLVTPSQQAKFGDYQCNSAMGISQMLKTKEQKVNPREIAENITKHLPDNECIEKVEIAGPGFINVHLRKDFVSEQLTSLLVNGVQLPALGENKKVIVDFSSPNIAKEMHVGHLRSTIIGESISRLFEFAGYDVLRLNHVGDWGTQFGMLIAHLQDKFPDYLTVSPPIGDLQVFYKESKKRFDTEEEFKKRAYQCVVLLQGKNPDITKAWKLICDVSRQELNKIYDALDVSLIERGESFYQDRMNDIVKEFEDRGFVQVDDGRKIVFVPGCSIPLTIVKSDGGYTYDTSDLAAIKQRLFEEKADMIIYVVDNGQSVHFQTIFAAAQMIGWYDPKVTRVFHAGFGVVLGEDKKKFKTRSGETVRLMDLLGEGLKRSMDKLKEKERDKVLTAEELNAAQTSVAYGCIKYADLSHNRLNDYIFSFDKMLDDRGNTAAYLLYAFTRIRSIARLANIDEEMLQKAARETKILLDHEKEWKLGRCILRFPEILQKILDDLFLHTLCDYIYELATAFTEFYDSCYCVEKDRQTGKILKVNMWRMLLCEAVAAVMAKGFDILGIKPVQRM
B2: threonyl-tRNA synthetase (protein, UniProt P26639 1-723)
chain: MFEEKASSPSGKMGGEEKPIGAGEEKQKEGGKKKNKEGSGDGGRAELNPWPEYIYTRLEMYNILKAEHDSILAEKAEKDSKPIKVTLPDGKQVDAESWKTTPYQIACGISQGLADNTVIAKVNNVVWDLDRPLEEDCTLELLKFEDEEAQAVYWHSSAHIMGEAMERVYGGCLCYGPPIENGFYYDMYLEEGGVSSNDFSSLEALCKKIIKEKQAFERLEVKKETLLAMFKYNKFKCRILNEKVNTPTTTVYRCGPLIDLCRGPHVRHTGKIKALKIHKNSSTYWEGKADMETLQRIYGISFPDPKMLKEWEKFQEEAKNRDHRKIGRDQELYFFHELSPGSCFFLPKGAYIYNALIEFIRSEYRKRGFQEVVTPNIFNSRLWMTSGHWQHYSENMFSFEVEKELFALKPMNCPGHCLMFDHRPRSWRELPLRLADFGVLHRNELSGALTGLTRVRRFQQDDAHIFCAMEQIEDEIKGCLDFLRTVYSVFGFSFKLNLSTRPEKFLGDIEVWDQAEKQLENSLNEFGEKWELNSGDGAFYGPKIDIQIKDAIGRYHQCATIQLDFQLPIRFNLTYVSHDGDDKKRPVIVHRAILGSVERMIAILTENYGGKWPFWLSPRQVMVVPVGPTCDEYAQKVRQQFHDAKFMADIDLDPGCTLNKKIRNAQLAQYNFILVVGEKEKISGTVNIRTRDNKVHGERTISETIERLQQLKEFRSKQAEEEF
B3: protein phosphatase 6 catalytic subunit (protein, UniProt O00743 1-305)
chain: MAPLDLDKYVEIARLCKYLPENDLKRLCDYVCDLLLEESNVQPVSTPVTVCGDIHGQFYDLCELFRTGGQVPDTNYIFMGDFVDRGYYSLETFTYLLALKAKWPDRITLLRGNHESRQITQVYGFYDECQTKYGNANAWRYCTKVFDMLTVAALIDEQILCVHGGLSPDIKTLDQIRTIERNQEIPHKGAFCDLVWSDPEDVDTWAISPRGAGWLFGAKVTNEFVHINNLKLICRAHQLVHEGYKFMFDEKLVTVWSAPNYCYRCGNIASIMVFKDVNTREPKLFRAVPDSERVIPPRTTTPYFL
B4: methionyl-tRNA synthetase (protein, UniProt P56192 1-900)
chain: MRLFVSDGVPGCLPVLAAAGRARGRAEVLISTVGPEDCVVPFLTRPKVPVLQLDSGNYLFSTSAICRYFFLLSGWEQDDLTNQWLEWEATELQPALSAALYYLVVQGKKGEDVLGSVRRALTHIDHSLSRQNCPFLAGETESLADIVLWGALYPLLQDPAYLPEELSALHSWFQTLSTQEPCQRAAETVLKQQGVLALRPYLQKQPQPSPAEGRAVTNEPEEEELATLSEEEIAMAVTAWEKGLESLPPLRPQQNPVLPVAGERNVLITSALPYVNNVPHLGNIIGCVLSADVFARYSRLRQWNTLYLCGTDEYGTATETKALEEGLTPQEICDKYHIIHADIYRWFNISFDIFGRTTTPQQTKITQDIFQQLLKRGFVLQDTVEQLRCEHCARFLADRFVEGVCPFCGYEEARGDQCDKCGKLINAVELKKPQCKVCRSCPVVQSSQHLFLDLPKLEKRLEEWLGRTLPGSDWTPNAQFITRSWLRDGLKPRCITRDLKWGTPVPLEGFEDKVFYVWFDATIGYLSITANYTDQWERWWKNPEQVDLYQFMAKDNVPFHSLVFPCSALGAEDNYTLVSHLIATEYLNYEDGKFSKSRGVGVFGDMAQDTGIPADIWRFYLLYIRPEGQDSAFSWTDLLLKNNSELLNNLGNFINRAGMFVSKFFGGYVPEMVLTPDDQRLLAHVTLELQHYHQLLEKVRIRDALRSILTISRHGNQYIQVNEPWKRIKGSEADRQRAGTVTGLAVNIAALLSVMLQPYMPTVSATIQAQLQLPPPACSILLTNFLCTLPAGHQIGTVSPLFQKLENDQIESLRQRFGGGQAKTSPKPAVVETVTTAKPQQIQALMDEVTKQGNIVRELKAQKADKNEVAAEVAKLLDLKKQLAVAEGKPPEAPKGKKKK
B5: glutaminyl-tRNA synthetase (protein, UniProt P47897 1-775)
chain: MAALDSLSLFTSLGLSEQKARETLKNSALSAQLREAATQAQQTLGSTIDKATGILLYGLASRLRDTRRLSFLVSYIASKKIHTEPQLSAALEYVRSHPLDPIDTVDFERECGVGVIVTPEQIEEAVEAAINRHRPQLLVERYHFNMGLLMGEARAVLKWADGKMIKNEVDMQVLHLLGPKLEADLEKKFKVAKARLEETDRRTAKDVVENGETADQTLSLMEQLRGEALKFHKPGENYKTPGYVVTPHTMNLLKQHLEITGGQVRTRFPPEPNGILHIGHAKAINFNFGYAKANNGICFLRFDDTNPEKEEAKFFTAICDMVAWLGYTPYKVTYASDYFDQLYAWAVELIRRGLAYVCHQRGEELKGHNTLPSPWRDRPMEESLLLFEAMRKGKFSEGEATLRMKLVMEDGKMDPVAYRVKYTPHHRTGDKWCIYPTYDYTHCLCDSIEHITHSLCTKEFQARRSSYFWLCNALDVYCPVQWEYGRLNLHYAVVSKRKILQLVATGAVRDWDDPRLFTLTALRRRGFPPEAINNFCARVGVTVAQTTMEPHLLEACVRDVLNDTAPRAMAVLESLRVIITNFPAAKSLDIQVPNFPADETKGFHQVPFAPIVFIERTDFKEEPEPGFKRLAWGQPVGLRHTGYVIELQHVVKGPSGCVESLEVTCRRADAGEKPKAFIHWVSQPLMCEVRLYERLFQHKNPEDPTEVPGGFLSDLNLASLHVVDAALVDCSVALAKPFDKFQFERLGYFSVDPDSHQGKLVFNRTVTLKEDPGKV
B6: minichromosome maintenance complex component 5 (protein, UniProt P33992 1-734)
chain: MSGFDDPGIFYSDSFGGDAQADEGQARKSQLQRRFKEFLRQYRVGTDRTGFTFKYRDELKRHYNLGEYWIEVEMEDLASFDEDLADYLYKQPAEHLQLLEEAAKEVADEVTRPRPSGEEVLQDIQVMLKSDASPSSIRSLKSDMMSHLVKIPGIIIAASAVRAKATRISIQCRSCRNTLTNIAMRPGLEGYALPRKCNTDQAGRPKCPLDPYFIMPDKCKCVDFQTLKLQELPDAVPHGEMPRHMQLYCDRYLCDKVVPGNRVTIMGIYSIKKFGLTTSRGRDRVGVGIRSSYIRVLGIQVDTDGSGRSFAGAVSPQEEEEFRRLAALPNVYEVISKSIAPSIFGGTDMKKAIACLLFGGSRKRLPDGLTRRGDINLLMLGDPGTAKSQLLKFVEKCSPIGVYTSGKGSSAAGLTASVMRDPSSRNFIMEGGAMVLADGGVVCIDEFDKMREDDRVAIHEAMEQQTISIAKAGITTTLNSRCSVLAAANSVFGRWDETKGEDNIDFMPTILSRFDMIFIVKDEHNEERDVMLAKHVITLHVSALTQTQAVEGEIDLAKLKKFIAYCRVKCGPRLSAEAAEKLKNRYIIMRSGARQHERDSDRRSSIPITVRQLEAIVRIAEALSKMKLQPFATEADVEEALRLFQVSTLDAALSGTLSGVEGFTSQEDQEMLSRIEKQLKRRFAIGSQVSEHSIIKDFTKQKYPEHAIHKVLQLMLRRGEIQHRMQRKVLYRLK

molecular target: T1, FLAG-tagged SMCR8 (Smith-Magenis Syndrome Chromosome Region, Candidate 8) (UniProt Q8TEV9); assay: affinity purification with mass spectrometry; FL-SMCR8, C9orf72-FL or empty vector transfected in HEK 293T; α-FLAG agarose IP from whole cell lysates with or without RNase; LC-MS/MS; hits with three or more spectra and not detected in vector only control
T1 sequence: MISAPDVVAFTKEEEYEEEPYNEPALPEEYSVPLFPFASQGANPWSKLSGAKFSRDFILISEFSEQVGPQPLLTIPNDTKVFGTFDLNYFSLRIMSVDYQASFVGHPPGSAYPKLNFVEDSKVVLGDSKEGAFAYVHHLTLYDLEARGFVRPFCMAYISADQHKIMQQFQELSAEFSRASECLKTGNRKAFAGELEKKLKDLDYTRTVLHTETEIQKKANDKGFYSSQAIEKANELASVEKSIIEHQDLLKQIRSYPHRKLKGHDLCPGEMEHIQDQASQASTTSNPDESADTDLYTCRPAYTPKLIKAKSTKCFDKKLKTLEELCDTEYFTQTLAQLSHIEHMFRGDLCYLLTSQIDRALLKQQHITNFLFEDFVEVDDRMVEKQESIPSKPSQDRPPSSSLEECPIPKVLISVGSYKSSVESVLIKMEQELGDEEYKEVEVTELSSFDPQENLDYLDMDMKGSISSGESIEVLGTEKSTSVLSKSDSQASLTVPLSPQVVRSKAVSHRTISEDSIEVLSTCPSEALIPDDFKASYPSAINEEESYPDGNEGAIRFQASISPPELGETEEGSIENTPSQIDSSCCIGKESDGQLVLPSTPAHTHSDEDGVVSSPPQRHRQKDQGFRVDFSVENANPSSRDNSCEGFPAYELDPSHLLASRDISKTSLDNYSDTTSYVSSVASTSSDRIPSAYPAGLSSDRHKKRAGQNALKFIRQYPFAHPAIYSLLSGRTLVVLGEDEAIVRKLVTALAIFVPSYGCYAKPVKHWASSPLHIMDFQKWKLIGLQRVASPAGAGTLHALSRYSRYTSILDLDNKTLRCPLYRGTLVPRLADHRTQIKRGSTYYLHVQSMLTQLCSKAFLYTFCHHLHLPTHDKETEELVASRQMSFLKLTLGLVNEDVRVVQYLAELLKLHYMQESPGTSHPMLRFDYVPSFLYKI

binding, binds:
B1
B2
B3
B4
B5
B6
